According to publication PMC6107663, “Crystal structure of human Mediator subunit MED23” (Nature Communications, 2018):
Results are given in words; binding and its absence hold for the method and conditions named. Binding seen in cells or lysates may run through a third protein. Some binding calls cover weakened binding; strength is not graded here.

Protein sequences, listed by entry. Tags and fused reporters are not part of them.
UniProt P49336: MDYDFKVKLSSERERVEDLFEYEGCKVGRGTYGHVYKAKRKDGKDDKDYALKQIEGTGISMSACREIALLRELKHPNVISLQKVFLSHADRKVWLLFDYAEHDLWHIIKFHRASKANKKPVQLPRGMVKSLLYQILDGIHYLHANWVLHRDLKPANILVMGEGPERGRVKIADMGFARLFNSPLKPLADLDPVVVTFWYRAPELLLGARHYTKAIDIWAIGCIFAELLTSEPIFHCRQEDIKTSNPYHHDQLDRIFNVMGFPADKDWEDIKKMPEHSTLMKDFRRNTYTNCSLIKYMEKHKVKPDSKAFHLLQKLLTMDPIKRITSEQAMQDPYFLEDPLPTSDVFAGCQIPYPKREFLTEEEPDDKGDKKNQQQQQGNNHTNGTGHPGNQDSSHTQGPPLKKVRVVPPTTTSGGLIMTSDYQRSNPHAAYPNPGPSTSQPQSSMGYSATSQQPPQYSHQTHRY
UniProt Q15648: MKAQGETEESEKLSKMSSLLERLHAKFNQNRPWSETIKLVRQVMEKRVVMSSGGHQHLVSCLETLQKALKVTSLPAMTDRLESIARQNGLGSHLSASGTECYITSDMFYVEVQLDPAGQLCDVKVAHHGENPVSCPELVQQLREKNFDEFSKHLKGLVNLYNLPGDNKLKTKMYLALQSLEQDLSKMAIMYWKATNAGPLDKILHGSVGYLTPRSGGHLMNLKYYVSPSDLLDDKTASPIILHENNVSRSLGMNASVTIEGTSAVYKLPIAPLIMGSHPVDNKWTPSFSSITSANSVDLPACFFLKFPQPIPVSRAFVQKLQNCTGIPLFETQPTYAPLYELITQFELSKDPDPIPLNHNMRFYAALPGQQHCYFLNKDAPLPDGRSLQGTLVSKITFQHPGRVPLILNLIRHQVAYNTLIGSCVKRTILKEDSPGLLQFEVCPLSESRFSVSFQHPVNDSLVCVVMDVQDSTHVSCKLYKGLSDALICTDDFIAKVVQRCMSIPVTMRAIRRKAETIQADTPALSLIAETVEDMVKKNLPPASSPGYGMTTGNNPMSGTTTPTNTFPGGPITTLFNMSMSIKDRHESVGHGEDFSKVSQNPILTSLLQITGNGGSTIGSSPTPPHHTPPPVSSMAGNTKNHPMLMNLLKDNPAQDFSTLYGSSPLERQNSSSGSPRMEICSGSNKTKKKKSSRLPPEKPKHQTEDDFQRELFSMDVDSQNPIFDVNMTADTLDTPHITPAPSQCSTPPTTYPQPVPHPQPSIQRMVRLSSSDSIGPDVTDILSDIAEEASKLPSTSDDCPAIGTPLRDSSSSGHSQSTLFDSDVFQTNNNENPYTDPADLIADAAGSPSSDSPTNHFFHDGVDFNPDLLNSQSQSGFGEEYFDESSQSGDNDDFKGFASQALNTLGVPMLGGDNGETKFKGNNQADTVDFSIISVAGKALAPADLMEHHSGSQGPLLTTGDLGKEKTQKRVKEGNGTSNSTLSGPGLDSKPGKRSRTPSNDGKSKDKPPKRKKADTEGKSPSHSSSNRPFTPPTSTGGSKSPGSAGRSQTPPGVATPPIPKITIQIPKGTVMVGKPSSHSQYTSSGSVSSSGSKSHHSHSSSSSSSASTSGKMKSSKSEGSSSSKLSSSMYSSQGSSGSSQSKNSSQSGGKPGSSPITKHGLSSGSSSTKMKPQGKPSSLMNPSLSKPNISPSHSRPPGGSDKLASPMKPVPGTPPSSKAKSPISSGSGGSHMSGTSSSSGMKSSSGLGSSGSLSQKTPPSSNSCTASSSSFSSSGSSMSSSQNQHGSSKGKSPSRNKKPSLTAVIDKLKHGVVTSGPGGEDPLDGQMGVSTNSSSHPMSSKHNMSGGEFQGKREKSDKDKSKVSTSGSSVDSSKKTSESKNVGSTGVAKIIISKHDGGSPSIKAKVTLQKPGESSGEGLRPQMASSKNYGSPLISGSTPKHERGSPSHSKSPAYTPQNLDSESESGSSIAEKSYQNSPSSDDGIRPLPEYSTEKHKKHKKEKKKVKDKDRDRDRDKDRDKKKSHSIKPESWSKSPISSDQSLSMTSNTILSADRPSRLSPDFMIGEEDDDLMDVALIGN
UniProt O60244: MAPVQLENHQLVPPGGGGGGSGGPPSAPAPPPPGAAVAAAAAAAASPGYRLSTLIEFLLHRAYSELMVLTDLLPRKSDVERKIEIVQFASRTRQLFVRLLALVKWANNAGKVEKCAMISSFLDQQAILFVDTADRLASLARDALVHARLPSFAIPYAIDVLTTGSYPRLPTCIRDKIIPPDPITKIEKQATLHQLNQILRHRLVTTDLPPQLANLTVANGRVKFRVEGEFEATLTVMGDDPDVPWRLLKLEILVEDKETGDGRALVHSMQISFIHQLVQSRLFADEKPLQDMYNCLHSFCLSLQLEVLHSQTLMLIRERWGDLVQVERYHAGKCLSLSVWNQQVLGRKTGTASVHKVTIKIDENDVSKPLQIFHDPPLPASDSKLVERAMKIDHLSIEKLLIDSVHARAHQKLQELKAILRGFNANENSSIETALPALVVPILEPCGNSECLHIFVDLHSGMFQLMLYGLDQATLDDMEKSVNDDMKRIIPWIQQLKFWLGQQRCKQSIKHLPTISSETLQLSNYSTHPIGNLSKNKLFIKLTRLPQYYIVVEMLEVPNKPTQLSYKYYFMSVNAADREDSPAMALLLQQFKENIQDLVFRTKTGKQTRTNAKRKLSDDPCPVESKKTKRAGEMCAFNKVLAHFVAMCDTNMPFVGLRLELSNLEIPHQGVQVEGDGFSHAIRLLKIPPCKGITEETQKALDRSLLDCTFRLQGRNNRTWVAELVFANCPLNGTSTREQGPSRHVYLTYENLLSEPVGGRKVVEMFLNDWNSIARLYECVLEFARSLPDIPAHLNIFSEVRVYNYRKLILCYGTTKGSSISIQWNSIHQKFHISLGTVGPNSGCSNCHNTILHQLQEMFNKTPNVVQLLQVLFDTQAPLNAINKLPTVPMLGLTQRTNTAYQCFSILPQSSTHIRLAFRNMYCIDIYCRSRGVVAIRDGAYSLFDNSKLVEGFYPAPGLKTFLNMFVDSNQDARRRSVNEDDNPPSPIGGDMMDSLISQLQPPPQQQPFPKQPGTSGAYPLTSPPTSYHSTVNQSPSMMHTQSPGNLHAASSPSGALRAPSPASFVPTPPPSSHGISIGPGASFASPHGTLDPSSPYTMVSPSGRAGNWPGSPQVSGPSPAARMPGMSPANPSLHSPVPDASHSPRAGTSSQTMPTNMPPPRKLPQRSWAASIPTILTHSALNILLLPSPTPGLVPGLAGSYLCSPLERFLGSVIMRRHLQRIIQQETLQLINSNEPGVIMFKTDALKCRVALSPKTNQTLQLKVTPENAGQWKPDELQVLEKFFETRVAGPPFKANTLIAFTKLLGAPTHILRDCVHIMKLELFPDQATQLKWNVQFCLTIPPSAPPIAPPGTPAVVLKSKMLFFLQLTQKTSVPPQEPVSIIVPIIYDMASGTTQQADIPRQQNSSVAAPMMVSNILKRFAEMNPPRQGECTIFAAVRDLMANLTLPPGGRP

T1: MED23, endogenous, incorporated within the Mediator complex (human (endogenous in HEK-293)) (UniProt Q9ULK4)
T1 sequence: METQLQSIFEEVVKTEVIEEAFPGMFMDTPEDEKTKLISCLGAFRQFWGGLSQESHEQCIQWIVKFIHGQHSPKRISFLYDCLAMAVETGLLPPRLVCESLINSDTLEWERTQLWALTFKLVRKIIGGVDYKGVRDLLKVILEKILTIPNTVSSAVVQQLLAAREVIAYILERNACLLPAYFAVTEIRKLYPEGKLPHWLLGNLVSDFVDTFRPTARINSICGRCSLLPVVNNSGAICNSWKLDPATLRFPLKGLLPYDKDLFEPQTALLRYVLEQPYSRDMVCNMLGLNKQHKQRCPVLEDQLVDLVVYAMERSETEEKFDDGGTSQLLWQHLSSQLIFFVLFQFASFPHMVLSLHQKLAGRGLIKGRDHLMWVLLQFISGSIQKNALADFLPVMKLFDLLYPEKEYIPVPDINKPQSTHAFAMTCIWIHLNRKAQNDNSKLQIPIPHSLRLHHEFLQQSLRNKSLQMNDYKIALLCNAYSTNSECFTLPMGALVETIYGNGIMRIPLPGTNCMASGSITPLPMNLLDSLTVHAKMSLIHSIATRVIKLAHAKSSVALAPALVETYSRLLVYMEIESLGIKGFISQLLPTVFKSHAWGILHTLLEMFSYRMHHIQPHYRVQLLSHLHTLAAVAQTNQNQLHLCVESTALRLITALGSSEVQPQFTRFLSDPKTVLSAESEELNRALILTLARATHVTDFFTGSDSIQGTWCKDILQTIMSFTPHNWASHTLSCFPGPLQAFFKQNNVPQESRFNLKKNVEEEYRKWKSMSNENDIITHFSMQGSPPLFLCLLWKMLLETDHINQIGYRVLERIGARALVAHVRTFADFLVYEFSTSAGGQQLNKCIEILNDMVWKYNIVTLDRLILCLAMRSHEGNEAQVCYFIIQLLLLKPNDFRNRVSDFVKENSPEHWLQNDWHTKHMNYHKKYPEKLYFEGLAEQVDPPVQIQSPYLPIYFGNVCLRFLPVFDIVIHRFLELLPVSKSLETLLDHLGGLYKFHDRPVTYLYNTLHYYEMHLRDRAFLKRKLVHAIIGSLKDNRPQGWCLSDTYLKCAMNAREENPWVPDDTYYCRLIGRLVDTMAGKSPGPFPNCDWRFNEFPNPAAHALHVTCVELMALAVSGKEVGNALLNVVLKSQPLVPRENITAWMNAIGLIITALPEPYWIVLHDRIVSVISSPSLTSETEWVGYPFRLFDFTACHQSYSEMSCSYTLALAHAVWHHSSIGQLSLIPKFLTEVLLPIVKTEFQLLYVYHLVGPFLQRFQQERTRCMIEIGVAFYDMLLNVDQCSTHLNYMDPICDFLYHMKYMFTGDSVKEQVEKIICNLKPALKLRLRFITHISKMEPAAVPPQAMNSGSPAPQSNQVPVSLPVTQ


Target: T1, MED23, endogenous, incorporated within the Mediator complex (human (endogenous in HEK-293))
Test: co-IP; endogenous Mediator subunits found with MED23 in the Nb106 immuno-complexes from HEK-293 lysate; CaptureSelect C-tag Affinity Matrix; western blot

binding	Molecule
binds	Cdk8 (from UniProt P49336 1-464)
binds	Med1 (from UniProt Q15648 1-1581)
binds	Med14 (from UniProt O60244 1-1454)
binds	Med18 (protein, UniProt Q9BUE0 1-208) MEAPPVTMMPVTGGTINMMEYLLQGSVLDHSLESLIHRLRGLCDNMEPETFLDHEMVFLLKGQQASPFVLRARRSMDRAGAPWHLRYLGQPEMGDKNRHALVRNCVDIATSENLTDFLMEMGFRMDHEFVAKGHLFRKGIMKIMVYKIFRILVPGNTDSTEALSLSYLVELSVVAPAGQDMVSDDMKNFAEQLKPLVHLEKIDPKRLM
binds	Med24 (protein, UniProt O75448 1-989) MKVVNLKQAILQAWKERWSDYQWAINMKKFFPKGATWDILNLADALLEQAMIGPSPNPLILSYLKYAISSQMVSYSSVLTAISKFDDFSRDLCVQALLDIMDMFCDRLSCHGKAEECIGLCRALLSALHWLLRCTAASAERLREGLEAGTPAAGEKQLAMCLQRLEKTLSSTKNRALLHIAKLEEASSWTAIEHSLLKLGEILANLSNPQLRSQAEQCGTLIRSIPTMLSVHAEQMHKTGFPTVHAVILLEGTMNLTGETQSLVEQLTMVKRMQHIPTPLFVLEIWKACFVGLIESPEGTEELKWTAFTFLKIPQVLVKLKKYSHGDKDFTEDVNCAFEFLLKLTPLLDKADQRCNCDCTNFLLQECGKQGLLSEASVNNLMAKRKADREHAPQQKSGENANIQPNIQLILRAEPTVTNILKTMDADHSKSPEGLLGVLGHMLSGKSLDLLLAAAAATGKLKSFARKFINLNEFTTYGSEESTKPASVRALLFDISFLMLCHVAQTYGSEVILSESRTGAEVPFFETWMQTCMPEEGKILNPDHPCFRPDSTKVESLVALLNNSSEMKLVQMKWHEACLSISAAILEILNAWENGVLAFESIQKITDNIKGKVCSLAVCAVAWLVAHVRMLGLDEREKSLQMIRQLAGPLFSENTLQFYNERVVIMNSILERMCADVLQQTATQIKFPSTGVDTMPYWNLLPPKRPIKEVLTDIFAKVLEKGWVDSRSIHIFDTLLHMGGVYWFCNNLIKELLKETRKEHTLRAVELLYSIFCLDMQQVTLVLLGHILPGLLTDSSKWHSLMDPPGTALAKLAVWCALSSYSSHKGQASTRQKKRHREDIEDYISLFPLDDVQPSKLMRLLSSNEDDANILSSPTDRSMSSSLSASQLHTVNMRDPLNRVLANLFLLISSILGSRTAGPHTQFVQWFMEECVDCLEQGGRGSVLQFMPFTTVSELVKVSAMSSPKVVLAITDLSLPLGRQVAAKAIAAL
binds	Med16 (protein, UniProt Q9Y2X0 1-877) MCDLRRPAAGGMMDLAYVCEWEKWSKSTHCPSVPLACAWSCRNLIAFTMDLRSDDQDLTRMIHILDTEHPWDLHSIPSEHHEAITCLEWDQSGSRLLSADADGQIKCWSMADHLANSWESSVGSLVEGDPIVALSWLHNGVKLALHVEKSGASSFGEKFSRVKFSPSLTLFGGKPMEGWIAVTVSGLVTVSLLKPSGQVLTSTESLCRLRGRVALADIAFTGGGNIVVATADGSSASPVQFYKVCVSVVSEKCRIDTEILPSLFMRCTTDLNRKDKFPAITHLKFLARDMSEQVLLCASSQTSSIVECWSLRKEGLPVNNIFQQISPVVGDKQPTILKWRILSATNDLDRVSAVALPKLPISLTNTDLKVASDTQFYPGLGLALAFHDGSVHIVHRLSLQTMAVFYSSAAPRPVDEPAMKRPRTAGPAVHLKAMQLSWTSLALVGIDSHGKLSVLRLSPSMGHPLEVGLALRHLLFLLEYCMVTGYDWWDILLHVQPSMVQSLVEKLHEEYTRQTAALQQVLSTRILAMKASLCKLSPCTVTRVCDYHTKLFLIAISSTLKSLLRPHFLNTPDKSPGDRLTEICTKITDVDIDKVMINLKTEEFVLDMNTLQALQQLLQWVGDFVLYLLASLPNQGSLLRPGHSFLRDGTSLGMLRELMVVIRIWGLLKPSCLPVYTATSDTQDSMSLLFRLLTKLWICCRDEGPASEPDEALVDECCLLPSQLLIPSLDWLPASDGLVSRLQPKQPLRLQFGRAPTLPGSAATLQLDGLARAPGQPKIDHLRRLHLGACPTEECKACTRCGCVTMLKSPNRTTAVKQWEQRWIKNCLAVEGRGPDACVTSRASEEAPAFVQLGPQSTHHSPRTPRSLDHLHPEDRP
binds	Med7 (protein, UniProt O43513 1-233) MGEPQQVSALPPPPMQYIKEYTDENIQEGLAPKPPPPIKDSYMMFGNQFQCDDLIIRPLESQGIERLHPMQFDHKKELRKLNMSILINFLDLLDILIRSPGSIKREEKLEDLKLLFVHVHHLINEYRPHQARETLRVMMEVQKRQRLETAERFQKHLERVIEMIQNCLASLPDDLPHSEAGMRVKTEPMDADDSNNCTGQNEHQRENSGHRRDQIIEKDAALCVLIDEMNERP
